Inconclusive means that the source gave no clear call. Such entries were picked first, then a sample of the others. Where the call is inconclusive, the potency comes from a doubtful curve fit. Activity calls are given as the source filed them. Calls come from the whole dose curve; as a rule, active = well fitted cell-killing curve with a large enough effect; inconclusive = small, poorly fitted or top-dose-only effect, or effect the other way; inactive = no such curve, though single readings can be large or run the other way.
Test: Quantitative High-Throughput drug screen in 47 multiple myeloma cell lines against the NCATS MIPE library collection: KMS12PE_JCRB cell viability assay (AID 1918972); note: nearly all actives have a fitted effect of over 30% in size
Details: KMS12PE myeloma viability, CellTiter-Glo ATP, 48 h; viability: at 45.8 µM (top of the series)
Method in brief: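 We plated 500 myeloma cells per well, pinned in MIPE 4.0 compounds, and incubated for 48 hours at 37C. ATP was then quantified with CellTiter-Glo, with DMSO and media-only wells defining 100% and 0%.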
Potency is the fitted concentration of half-maximal effect.

Structure (SMILES)	Potency	viability
COc1cc(-c2nn(C3CCC(N4CCN(C(C)=O)CC4)CC3)c3ncnc(N)c23)ccc1NC(=O)c1cc2ccccc2n1C (centres undefined)	inconclusive: 372 nM [cytotoxic, full curve]	
c1ccc([C@H]2CN3CCSC3=N2)cc1	inconclusive: 2640 nM [rising, partial curve, poor fit]	
Cc1cc(OCCCS(C)(=O)=O)cc(C)c1-c1cccc(COc2ccc3c(c2)OC[C@H]3CC(=O)O)c1	active: 5260 nM	
CC1CNc2c(cccc2S(=O)(=O)N[C@@H](CCCN=C(N)N)C(=O)N2CC[C@@H](C)C[C@@H]2C(=O)O)C1 (some centres undefined)	inconclusive: 23500 nM [cytotoxic, partial curve]	
O=C1CCC(N2C(=O)c3ccccc3C2=O)C(=O)N1 (centres undefined)		inactive: 102%
C[C@]12CCC(=O)C=C1CC[C@@H]1[C@H]2[C@@H](O)C[C@@]2(C)[C@H]1CC[C@]2(O)C(=O)CO	inconclusive: 372 nM [cytotoxic, partial curve, poor fit]	
N#CC[C@H](C1CCCC1)n1cc(-c2ncnc3[nH]ccc23)cn1	inconclusive: 11800 nM [cytotoxic, single point]	
CCCCN1CCC(CNC(=O)c2c3n(c4ccccc24)CCCO3)CC1	inconclusive: 16600 nM [cytotoxic, partial curve]	
Cc1ccc(S(=O)(=O)OCC(=O)Nc2ccc(C(=O)O)c(O)c2)cc1	inconclusive: 13200 nM [cytotoxic, partial curve, poor fit]	
O=c1c(O)c(-c2ccc(O)cc2O)oc2cc(O)cc(O)c12	inconclusive: 11.8 nM [cytotoxic, full curve, poor fit]	
CCN1CCN(c2ccc(Nc3cc(N(C)C(=O)Nc4c(Cl)c(OC)cc(OC)c4Cl)ncn3)cc2)CC1	inconclusive: 118 nM [rising, full curve, poor fit]	
NC(=O)c1cnccn1	inconclusive: 3.3 nM [rising, full curve, poor fit]	
FC(F)c1nc2ccccc2n1-c1nc(N2CCOCC2)nc(N2CCOCC2)n1	inconclusive: 418 nM [cytotoxic, full curve]	
CCCCOc1c(C(=O)c2c(F)cc(C)cc2F)cnc2n[nH]cc12	inconclusive: 8330 nM [cytotoxic, single point]	

Among those listed so far, 2 have an NH in an aromatic ring:
Structure (SMILES)	Potency	viability
N#CC[C@H](C1CCCC1)n1cc(-c2ncnc3[nH]ccc23)cn1	inconclusive: 11800 nM [cytotoxic, single point]	
CCCCOc1c(C(=O)c2c(F)cc(C)cc2F)cnc2n[nH]cc12	inconclusive: 8330 nM [cytotoxic, single point]	

— PubChem BioAssay (NCATS)
